Test system: TYK2
Assay: IL-12-stimulated IFN-γ production in human whole blood
Type: cell-based
Settings: read-out: Whole blood IC50 (95% CI), TYK2 (IL-12–induced IFN-γ release)

- IC50: 2350 nM
Structure (SMILES): CCS(=O)(=O)N1CC(CC#N)(n2cc(-c3ncnc4[nH]ccc34)cn2)C1 [Baricitinib]

— article PMC8484413 (Dermatology and Therapy, 2021)
